At least one compound was matched to its structure with a doubt left.
Columns and labels:
RORγ = biological target: T1, RORγ (Homo sapiens, UniProt P51449); test: Luciferase activity assay (dual luciferase, MMP3 promoter reporter), repression of ROR gamma activity; format: cell-based; settings: 3T3L1 preadipocyte cells transfected with MMP3 promoter reporter and RORγ expression vector; 1 to 25 nM; lysed 24 h after treatment; FIG. 2
T1 construct: expressed in transfected cells; host or cells: 3T3L1 preadipocyte cells
T1 sequence (P51449 1-518): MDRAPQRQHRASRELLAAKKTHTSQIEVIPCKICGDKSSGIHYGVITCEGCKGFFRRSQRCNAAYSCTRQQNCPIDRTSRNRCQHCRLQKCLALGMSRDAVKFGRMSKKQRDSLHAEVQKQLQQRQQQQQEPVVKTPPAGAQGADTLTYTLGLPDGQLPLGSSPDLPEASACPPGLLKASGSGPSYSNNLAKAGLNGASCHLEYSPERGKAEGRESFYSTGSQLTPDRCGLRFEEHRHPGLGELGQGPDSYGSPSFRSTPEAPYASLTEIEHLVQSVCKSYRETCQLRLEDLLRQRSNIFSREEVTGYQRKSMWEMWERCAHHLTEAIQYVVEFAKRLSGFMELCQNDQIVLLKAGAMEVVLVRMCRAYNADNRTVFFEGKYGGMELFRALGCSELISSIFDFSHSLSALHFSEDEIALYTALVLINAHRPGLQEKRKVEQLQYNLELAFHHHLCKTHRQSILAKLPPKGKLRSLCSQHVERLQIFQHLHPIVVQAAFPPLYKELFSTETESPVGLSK

C57B6 mice [1] = test: Insulin tolerance test, in vivo prevention efficacy in mice fed a high fat diet; settings: high fat diet supplemented with 0.1% or 0.01% compound for 6 weeks; 0.5 U/kg insulin i.p.; FIG. 3
C57B6 mice [2] = test: In vivo therapeutic efficacy in obese/insulin resistant mice (blood glucose, circulating insulin); settings: obese insulin resistant mice (6 weeks high fat diet), then diet supplemented with 0.01% compound for 6 or 12 weeks; FIGS. 4 and 5

CC(=O)O[C@@H]1C[C@@H]2C[C@H](O)C[C@@H](O)[C@]2(C)C2C[C@H](O)[C@]3(C)[C@@H]([C@H](C)CCC(=O)O)CC[C@H]3C21 (stereo partly drawn) [tetraol compound, 1β,3α,7α,12α-Tetrahydroxy-5β-cholan-24-oate]
repression of RORγ transcriptional activity (ratio of firefly over renilla luciferase) (RORγ): dose dependent reduction of RORgamma activity | insulin sensitivity, as measured by an insulin tolerance test (C57B6 mice [1]): dramatic improvement in insulin sensitivity | insulin sensitivity, as measured by circulating glucose and insulin levels (C57B6 mice [2]): dramatic improvement in insulin sensitivity
